Measurements reported in PubChem BioAssay AID1259254 (NCATS, 2017)
Purpose: 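Gene knock-downs that lead to re-replication, shown by excess G2 DNA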 (primary screen). Cells: human HCT116 colorectal cancer cells. Reagents: single siRNA against human genes. Duration: 3 days. Read-out: 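Imaged Hoechst DNA stain sorts each cell into a cycle phase by DNA amount; per plate, G2 fraction set to 0% for non-targeting and 100% for GMNN siRNA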. Scale: G2 robust z-score: higher = more G2 cells, more excess DNA replication. Call rule: 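An siRNA counts as active if its G2 robust z-score lies at least 5 MADs above the screen median; here such calls match roughly 38% of GMNN control or more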.
The deposit covers about 59,000 reagents; shown is a part drawn at random. About 1,550 of all reagents (2.6%) count as active. 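G2 share is only a proxy for re-replication; each gene was hit by three separate siRNAs, and active genes were retested.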 Unmarked entries are inactive. Further read-outs or replicates are left out here. No sequences are given here. Not stated in the record: the amount of reagent.

| target gene | PubChem SID | G2 robust z-score |
| --- | --- | --- |
| DDC (GeneID 1644) | SID160753135 | -0.751 |
| DDC (GeneID 1644) | SID160753146 | 3.81 |
| DDC (GeneID 1644) | SID160753155 | -0.226 |
| CYBC1 (GeneID 79415) | SID160734932 | -0.0852 |
| CYBC1 (GeneID 79415) | SID160748863 | -0.547 |
| CYBC1 (GeneID 79415) | SID160748864 | -0.365 |
| CIMAP1D (GeneID 284451) | SID160725013 | -1.02 |
| CIMAP1D (GeneID 284451) | SID160725014 | 1.07 |
| CIMAP1D (GeneID 284451) | SID160763347 | 2.6 |
| MAN2A1 (GeneID 4124) | SID160776938 | -1.1 |
| MAN2A1 (GeneID 4124) | SID160776939 | -0.894 |
| MAN2A1 (GeneID 4124) | SID160776940 | 3.71 |
| PARD3 (GeneID 56288) | SID160745013 | -0.227 |
| PARD3 (GeneID 56288) | SID160745014 | 0.968 |
| PARD3 (GeneID 56288) | SID160745015 | -0.347 |
| TLCD4 (GeneID 148534) | SID160758712 | 2.72 |
| TLCD4 (GeneID 148534) | SID160758713 | 0.679 |
| TLCD4 (GeneID 148534) | SID160758714 | -0.666 |
| ZNF184 (GeneID 7738) | SID160719241 | 2.69 |
| ZNF184 (GeneID 7738) | SID160719242 | 0.352 |
| ZNF184 (GeneID 7738) | SID160719244 | -0.445 |
| IL10RA (GeneID 3587) | SID160775754 | 1.04 |
| IL10RA (GeneID 3587) | SID160775755 | 0.631 |
| IL10RA (GeneID 3587) | SID160775756 | 2.16 |
| ANKRD45 (GeneID 339416) | SID160733082 | -0.375 |
| ANKRD45 (GeneID 339416) | SID160764226 | -0.795 |
| ANKRD45 (GeneID 339416) | SID160764227 | 2.36 |
| CLOCK (GeneID 9575) | SID160722534 | -0.329 |
| CLOCK (GeneID 9575) | SID160722535 | -0.681 |
| CLOCK (GeneID 9575) | SID160722536 | 0.704 |
| PECR (GeneID 55825) | SID160744459 | -1.49 |
| PECR (GeneID 55825) | SID160744460 | 4.89 |
| PECR (GeneID 55825) | SID160744461 | -0.75 |
| EPHB6 (GeneID 2051) | SID160761083 | 2 |
| EPHB6 (GeneID 2051) | SID160761094 | 1.03 |
| EPHB6 (GeneID 2051) | SID160761105 | 0.212 |
| CLCN3 (GeneID 1182) | SID160744192 | 3.09 |
| CLCN3 (GeneID 1182) | SID160744203 | -1.16 |
| CLCN3 (GeneID 1182) | SID160744213 | -0.56 |
| DYNC2I1 (GeneID 55112) | SID160742969 | -0.976 |
| DYNC2I1 (GeneID 55112) | SID160742970 | -0.719 |
| DYNC2I1 (GeneID 55112) | SID160742971 | -0.303 |
| VEZT (GeneID 55591) | SID160743850 | -0.0714 |
| VEZT (GeneID 55591) | SID160743851 | -0.106 |
| VEZT (GeneID 55591) | SID160743852 | 4.37 |

Individual results from above.
Value for MAN2A1 (GeneID 4124) [SID160776938] in “G2 robust z-score”: -1.1
Value for CYBC1 (GeneID 79415) [SID160748864] under “G2 robust z-score”: -0.365
Entry of EPHB6 (GeneID 2051) [SID160761083] under “G2 robust z-score”: 2
Under “G2 robust z-score”, PECR (GeneID 55825) [SID160744459] reads -1.49
ZNF184 (GeneID 7738) [SID160719242], G2 robust z-score → 0.352
Result for TLCD4 (GeneID 148534) [SID160758713] in “G2 robust z-score”: 0.679

Continued:
| target gene | PubChem SID | G2 robust z-score |
| --- | --- | --- |
| BBX (GeneID 56987) | SID160745454 | 3.68 |
| BBX (GeneID 56987) | SID160745455 | -0.829 |
| BBX (GeneID 56987) | SID160745456 | 0.553 |
| RPS3 (GeneID 6188) | SID160716128 | 2.78 |
| RPS3 (GeneID 6188) | SID160716129 | 1.95 |
| RPS3 (GeneID 6188) | SID160716130 | 4.11 |
| EEF2K (GeneID 29904) | SID160739265 | 1.4 |
| EEF2K (GeneID 29904) | SID160739266 | -0.199 |
| EEF2K (GeneID 29904) | SID160739267 | 0.302 |
| SLC25A42 (GeneID 284439) | SID160763340 | -1.08 |
| SLC25A42 (GeneID 284439) | SID160763341 | -0.758 |
| SLC25A42 (GeneID 284439) | SID160763342 | -0.381 |
| NINJ1 (GeneID 4814) | SID160778072 | -1.17 |
| NINJ1 (GeneID 4814) | SID160778073 | 2.93 |
| NINJ1 (GeneID 4814) | SID160778074 | -0.265 |
| NQO1 (GeneID 1728) | SID160754224 | 3.08 |
| NQO1 (GeneID 1728) | SID160754235 | 1.22 |
| NQO1 (GeneID 1728) | SID160754246 | 0.726 |
| LRRN4CL (GeneID 221091) | SID160732702 | -0.146 |
| LRRN4CL (GeneID 221091) | SID160761600 | 1.41 |
| LRRN4CL (GeneID 221091) | SID160761601 | -0.918 |
| MAMDC4 (GeneID 158056) | SID160759589 | 4.45 |
| MAMDC4 (GeneID 158056) | SID160759590 | 0.148 |
| MAMDC4 (GeneID 158056) | SID160759591 | 3.87 |
